Assay results reported in the supplement of paper PMC4604168 (melanoma cell lines).
This is one part of the list. Single values are uncertain, as repeats are few or missing.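 Cells were imaged in 1,536-well plates, and nuclei stained with an antibody against cleaved PARP were counted against all DNA-stained nuclei to give the apoptosis fraction. Screening doses were chosen to leave most cells alive, and resting and induced cleaved-PARP levels differ strongly between cell lines.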

test system: SkMel30; assay: cleaved PARP positive nuclei fraction relative to DMSO control; melanoma cells; higher = more apoptosis; details: library dose: low library concentration; 72 h

SMILES | cleaved PARP positive nuclei fraction
CC1(C)NC(=O)N(c2ccc([N+](=O)[O-])c(C(F)(F)F)c2)C1=O [nilutamide] + CCCCCCCCCCCC1=C(O)C(=O)C=C(O)C1=O [Embelin] (first compound 1 µM, partner dose 1.2 µM) | 91.7%
Cn1nnc2c(C(N)=O)ncn2c1=O [temozolomide] + COc1ccc2c(c1)CCC1C2CCC2(C)C(NCCCCCCN3C(=O)C=CC3=O)CCC12 [U73122] (first compound 2 µM, partner dose 0.4 µM) | 18.1%
Cn1nnc2c(C(N)=O)ncn2c1=O [temozolomide] + O=S(=O)(c1ccccc1)N(CC(F)(F)F)c1ccc(C(O)(C(F)(F)F)C(F)(F)F)cc1 [T0901317] (first compound 2 µM, partner dose 1.4 µM) | 27.9%
O=C(CCCCCCC(=O)Nc1ccccc1)NO [vorinostat] + O=c1cc(-c2cccc3c2Sc2ccccc2S3)oc(N2CCOCC2)c1 [KU55933] (first compound 0.08 µM, partner dose 1 µM) | 208%
C[C@@H]1CCN(C(=O)CC#N)C[C@@H]1N(C)c1ncnc2[nH]ccc12 + CC(C)CCN1c2nc(Nc3cc(F)c(O)c(F)c3)ncc2N(C)C(=O)C1C [BID1870] (first compound 1 µM, partner dose 0.2 µM) | 14.5%
Cn1nnc2c(C(N)=O)ncn2c1=O [temozolomide] + COc1ccc(-c2ccc3c(N4CCOCC4)nc(N4C[C@@H](C)O[C@@H](C)C4)nc3n2)cc1CO [KU0063794] (first compound 2 µM, partner dose 0.02 µM) | 110%
Nc1cccc2c1CN(C1CCC(=O)NC1=O)C2=O (stereo unspecified) [lenalidomide] + CCN(CC)CCCCNc1ncc2cc(-c3cc(OC)cc(OC)c3)c(NC(=O)NC(C)(C)C)nc2n1 [PD173074] (first compound 1 µM, partner dose 0.1 µM) | 27.2%
Cc1nc(Nc2ncc(C(=O)Nc3c(C)cccc3Cl)s2)cc(N2CCN(CCO)CC2)n1 [dasatanib] + CCCCCCCCCCCC1=C(O)C(=O)C=C(O)C1=O [Embelin] (first compound 0.004 µM, partner dose 1.2 µM) | 35.8%
O=C(Nc1cccc(Cl)c1)Nc1ncc(CCNc2ncnc3ccsc23)s1 + Cn1cc(/C=C2\C(=O)Nc3cccnc32)c2ccccc21 [GW441756] (first compound 0.0008 µM, partner dose 0.4 µM) | 21.9%
Nc1cccc2c1CN(C1CCC(=O)NC1=O)C2=O (stereo unspecified) [lenalidomide] + COc1ccc(COc2ccc(Cc3cnc(N)nc3N)cc2OC)cc1 [GW2580] (first compound 1 µM, partner dose 1 µM) | 201%
Cc1ccc(NC(=O)c2cccc(N(C)C)c2)cc1NC(=O)c1ccc(O)cc1 + O=c1cc(-c2cccc3c2Sc2ccccc2S3)oc(N2CCOCC2)c1 [KU55933] (first compound 2 µM, partner dose 1 µM) | 106%
OCCn1cc(-c2cnc3nnn(Cc4ccc5ncccc5c4)c3n2)cn1 + Cc1cc([N+](=O)[O-])ccc1NS(=O)(=O)c1cc(Cl)ccc1Cl [FH535] (first compound 1 µM, partner dose 1 µM) | 45%
Cn1cncc1[C@@](N)(c1ccc(Cl)cc1)c1ccc2c(c1)c(-c1cccc(Cl)c1)cc(=O)n2C [tipifarnib] + O=c1cc(-c2cccc3c2Sc2ccccc2S3)oc(N2CCOCC2)c1 [KU55933] (first compound 0.01 µM, partner dose 1 µM) | 41.9%
NC(=O)Nc1cc(-c2cccc(F)c2)sc1C(=O)N[C@H]1CCCNC1 + c1cc(-c2cnn3cc(-c4ccc(OCCN5CCCCC5)cc4)cnc23)ccn1 [Dorsomorphin] (first compound 0.02 µM, partner dose 0.4 µM) | 18.7%
O=C(Nc1cccc(Cl)c1)Nc1ncc(CCNc2ncnc3ccsc23)s1 + CCc1ccc(CCOc2ccc(CC3SC(=O)NC3=O)cc2)nc1 [pioglitazone] (first compound 0.0008 µM, partner dose 2 µM) | 31%
C[C@]1(c2nc3c(C(N)=O)cccc3[nH]2)CCCN1 [Veliparib] + COc1ccc2c(c1)CCC1C2CCC2(C)C(NCCCCCCN3C(=O)C=CC3=O)CCC12 [U73122] (first compound 1.4 µM, partner dose 0.4 µM) | 36.3%
C[C@@H]1CCN(C(=O)CC#N)C[C@@H]1N(C)c1ncnc2[nH]ccc12 + COc1ccc2c(c1)CCC1C2CCC2(C)C(NCCCCCCN3C(=O)C=CC3=O)CCC12 [U73122] (first compound 1 µM, partner dose 0.4 µM) | 124%
OCCn1cc(-c2cnc3nnn(Cc4ccc5ncccc5c4)c3n2)cn1 + COC(=O)c1sccc1S(=O)(=O)Nc1ccc(Nc2ccccc2)cc1OC [GSK0660] (first compound 1 µM, partner dose 1 µM) | 82.4%
O=C(Nc1cccc(Cl)c1)Nc1ncc(CCNc2ncnc3ccsc23)s1 + Oc1nc(-c2ccc(C(F)(F)F)cc2)nc2c1CSCC2 [XAV939] (first compound 0.0008 µM, partner dose 2 µM) | 94%
O=C(Nc1cccc(Cl)c1)Nc1ncc(CCNc2ncnc3ccsc23)s1 + COc1cc2ncnc(Nc3ccc(Oc4ccccc4)cc3)c2cc1OC [SrcI1] (first compound 0.0008 µM, partner dose 2 µM) | 65.3%
COc1cc(Nc2ncc(F)c(Nc3ccc4c(n3)NC(=O)C(C)(C)O4)n2)cc(OC)c1OC [Tamatinib] + COc1cc(N2CCC(N3CCN(C)CC3)CC2)ccc1Nc1ncc(Cl)c(Nc2ccccc2S(=O)(=O)C(C)C)n1 [NVP-TAE684] (first compound 0.4 µM, partner dose 0.08 µM) | 188%

Rewritten tab-delimited: entries from further up
SMILES	cleaved PARP positive nuclei fraction
OCCn1cc(-c2cnc3nnn(Cc4ccc5ncccc5c4)c3n2)cn1 + Cc1cc([N+](=O)[O-])ccc1NS(=O)(=O)c1cc(Cl)ccc1Cl [FH535] (first compound 1 µM, partner dose 1 µM)	45%
Cn1cncc1[C@@](N)(c1ccc(Cl)cc1)c1ccc2c(c1)c(-c1cccc(Cl)c1)cc(=O)n2C [tipifarnib] + O=c1cc(-c2cccc3c2Sc2ccccc2S3)oc(N2CCOCC2)c1 [KU55933] (first compound 0.01 µM, partner dose 1 µM)	41.9%
